The target of the assay is T1, natriuretic peptide receptor 3 (NPR3) (mouse (endogenous in primary VSMCs of C57BL/6J mice)) (UniProt P70180).
T1 sequence: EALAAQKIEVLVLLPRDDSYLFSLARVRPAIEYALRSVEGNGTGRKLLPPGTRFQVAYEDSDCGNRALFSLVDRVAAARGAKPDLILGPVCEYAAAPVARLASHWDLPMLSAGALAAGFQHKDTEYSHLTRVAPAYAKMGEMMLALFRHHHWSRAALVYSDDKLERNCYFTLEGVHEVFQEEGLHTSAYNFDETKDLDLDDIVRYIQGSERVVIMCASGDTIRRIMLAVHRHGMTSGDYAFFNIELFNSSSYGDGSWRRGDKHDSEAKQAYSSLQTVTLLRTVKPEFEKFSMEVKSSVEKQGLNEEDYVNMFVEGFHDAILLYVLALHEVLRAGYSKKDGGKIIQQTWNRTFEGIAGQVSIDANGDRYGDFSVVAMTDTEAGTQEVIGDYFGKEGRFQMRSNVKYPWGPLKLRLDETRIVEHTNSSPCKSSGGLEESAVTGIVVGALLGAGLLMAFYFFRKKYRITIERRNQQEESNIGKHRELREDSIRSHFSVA
In words: co-IP; lysates of primary mouse VSMCs stimulated with PDGF-BB (30 ng/mL), treated with or without Musclin (50 nM, 24 h), with or without Npr3 siRNA; IP and input blotted with anti-NPR3 and anti-raptor antibodies; which antibody precipitated is not stated.

By UniProt entry, the sequences of proteins in these tests, tags left out.
UniProt Q8K4Q0: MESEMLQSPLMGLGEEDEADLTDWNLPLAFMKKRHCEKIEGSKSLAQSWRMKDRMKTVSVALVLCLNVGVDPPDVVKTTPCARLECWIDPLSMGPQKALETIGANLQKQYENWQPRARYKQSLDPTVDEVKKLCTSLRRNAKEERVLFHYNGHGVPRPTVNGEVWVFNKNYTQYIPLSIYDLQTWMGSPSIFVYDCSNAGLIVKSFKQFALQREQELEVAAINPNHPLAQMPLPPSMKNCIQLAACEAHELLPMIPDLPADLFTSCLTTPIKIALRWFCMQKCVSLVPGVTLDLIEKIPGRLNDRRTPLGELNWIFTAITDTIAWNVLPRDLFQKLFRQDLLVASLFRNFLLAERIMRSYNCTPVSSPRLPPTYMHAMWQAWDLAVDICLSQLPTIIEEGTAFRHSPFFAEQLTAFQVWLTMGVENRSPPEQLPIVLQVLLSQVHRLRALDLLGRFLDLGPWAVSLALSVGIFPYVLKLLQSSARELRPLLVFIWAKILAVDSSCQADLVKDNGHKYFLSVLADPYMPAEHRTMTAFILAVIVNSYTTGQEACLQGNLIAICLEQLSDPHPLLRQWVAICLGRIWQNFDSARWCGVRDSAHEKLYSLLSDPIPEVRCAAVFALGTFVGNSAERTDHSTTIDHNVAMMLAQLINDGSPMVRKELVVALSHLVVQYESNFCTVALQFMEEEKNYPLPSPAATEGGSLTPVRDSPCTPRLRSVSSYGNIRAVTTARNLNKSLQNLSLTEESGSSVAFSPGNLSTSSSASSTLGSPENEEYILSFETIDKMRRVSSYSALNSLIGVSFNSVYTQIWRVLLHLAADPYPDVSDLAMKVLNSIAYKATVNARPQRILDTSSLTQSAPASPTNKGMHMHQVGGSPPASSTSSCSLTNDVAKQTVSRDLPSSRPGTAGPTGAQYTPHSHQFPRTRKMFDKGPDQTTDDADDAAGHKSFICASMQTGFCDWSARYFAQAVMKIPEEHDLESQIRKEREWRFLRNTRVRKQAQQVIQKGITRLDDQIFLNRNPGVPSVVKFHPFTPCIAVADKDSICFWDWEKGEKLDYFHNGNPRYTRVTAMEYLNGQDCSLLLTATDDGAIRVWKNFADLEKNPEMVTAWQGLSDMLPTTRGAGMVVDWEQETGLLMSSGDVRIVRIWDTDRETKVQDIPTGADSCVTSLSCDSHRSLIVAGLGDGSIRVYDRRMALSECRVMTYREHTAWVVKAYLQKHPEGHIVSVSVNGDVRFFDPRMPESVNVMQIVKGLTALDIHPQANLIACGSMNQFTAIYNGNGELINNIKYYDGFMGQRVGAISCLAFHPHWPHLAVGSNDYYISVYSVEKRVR

These are yes or no findings as the source states them, for the method shown. Binding seen in cells or lysates may run through a third protein. Some results given as binding are weak or reduced against the parent protein; the word gives no strength.

As to raptor (from UniProt Q8K4Q0 1-1335), the binding result is “binds”.

The values are drawn from article PMC13448985.
